# In paper doi:10.1101/2021.09.18.460932:
# Chains of the proteins cited; added tags and fusions are not shown.
# UniProt Q14240: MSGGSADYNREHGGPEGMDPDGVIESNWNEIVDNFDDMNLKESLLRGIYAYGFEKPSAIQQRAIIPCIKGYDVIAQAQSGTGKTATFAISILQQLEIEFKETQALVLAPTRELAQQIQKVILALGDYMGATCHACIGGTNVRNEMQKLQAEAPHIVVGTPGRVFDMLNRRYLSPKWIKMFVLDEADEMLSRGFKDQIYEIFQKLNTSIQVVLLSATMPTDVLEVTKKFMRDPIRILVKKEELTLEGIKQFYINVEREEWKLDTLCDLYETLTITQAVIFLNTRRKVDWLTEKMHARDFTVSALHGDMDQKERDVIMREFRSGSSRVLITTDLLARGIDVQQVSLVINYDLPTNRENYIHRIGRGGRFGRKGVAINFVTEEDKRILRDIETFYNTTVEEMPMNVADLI
# UniProt P60842: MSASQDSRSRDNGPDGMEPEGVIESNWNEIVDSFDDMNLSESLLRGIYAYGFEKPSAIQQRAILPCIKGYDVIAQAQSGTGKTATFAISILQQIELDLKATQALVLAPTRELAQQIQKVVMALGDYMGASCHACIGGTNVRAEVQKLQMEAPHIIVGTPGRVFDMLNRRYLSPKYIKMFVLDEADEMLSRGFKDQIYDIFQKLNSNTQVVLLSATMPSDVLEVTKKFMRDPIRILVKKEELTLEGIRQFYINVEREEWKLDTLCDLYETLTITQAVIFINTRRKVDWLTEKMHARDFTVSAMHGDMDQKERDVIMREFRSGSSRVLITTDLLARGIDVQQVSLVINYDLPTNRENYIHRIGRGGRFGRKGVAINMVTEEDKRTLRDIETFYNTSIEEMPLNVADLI
# UniProt Q04637: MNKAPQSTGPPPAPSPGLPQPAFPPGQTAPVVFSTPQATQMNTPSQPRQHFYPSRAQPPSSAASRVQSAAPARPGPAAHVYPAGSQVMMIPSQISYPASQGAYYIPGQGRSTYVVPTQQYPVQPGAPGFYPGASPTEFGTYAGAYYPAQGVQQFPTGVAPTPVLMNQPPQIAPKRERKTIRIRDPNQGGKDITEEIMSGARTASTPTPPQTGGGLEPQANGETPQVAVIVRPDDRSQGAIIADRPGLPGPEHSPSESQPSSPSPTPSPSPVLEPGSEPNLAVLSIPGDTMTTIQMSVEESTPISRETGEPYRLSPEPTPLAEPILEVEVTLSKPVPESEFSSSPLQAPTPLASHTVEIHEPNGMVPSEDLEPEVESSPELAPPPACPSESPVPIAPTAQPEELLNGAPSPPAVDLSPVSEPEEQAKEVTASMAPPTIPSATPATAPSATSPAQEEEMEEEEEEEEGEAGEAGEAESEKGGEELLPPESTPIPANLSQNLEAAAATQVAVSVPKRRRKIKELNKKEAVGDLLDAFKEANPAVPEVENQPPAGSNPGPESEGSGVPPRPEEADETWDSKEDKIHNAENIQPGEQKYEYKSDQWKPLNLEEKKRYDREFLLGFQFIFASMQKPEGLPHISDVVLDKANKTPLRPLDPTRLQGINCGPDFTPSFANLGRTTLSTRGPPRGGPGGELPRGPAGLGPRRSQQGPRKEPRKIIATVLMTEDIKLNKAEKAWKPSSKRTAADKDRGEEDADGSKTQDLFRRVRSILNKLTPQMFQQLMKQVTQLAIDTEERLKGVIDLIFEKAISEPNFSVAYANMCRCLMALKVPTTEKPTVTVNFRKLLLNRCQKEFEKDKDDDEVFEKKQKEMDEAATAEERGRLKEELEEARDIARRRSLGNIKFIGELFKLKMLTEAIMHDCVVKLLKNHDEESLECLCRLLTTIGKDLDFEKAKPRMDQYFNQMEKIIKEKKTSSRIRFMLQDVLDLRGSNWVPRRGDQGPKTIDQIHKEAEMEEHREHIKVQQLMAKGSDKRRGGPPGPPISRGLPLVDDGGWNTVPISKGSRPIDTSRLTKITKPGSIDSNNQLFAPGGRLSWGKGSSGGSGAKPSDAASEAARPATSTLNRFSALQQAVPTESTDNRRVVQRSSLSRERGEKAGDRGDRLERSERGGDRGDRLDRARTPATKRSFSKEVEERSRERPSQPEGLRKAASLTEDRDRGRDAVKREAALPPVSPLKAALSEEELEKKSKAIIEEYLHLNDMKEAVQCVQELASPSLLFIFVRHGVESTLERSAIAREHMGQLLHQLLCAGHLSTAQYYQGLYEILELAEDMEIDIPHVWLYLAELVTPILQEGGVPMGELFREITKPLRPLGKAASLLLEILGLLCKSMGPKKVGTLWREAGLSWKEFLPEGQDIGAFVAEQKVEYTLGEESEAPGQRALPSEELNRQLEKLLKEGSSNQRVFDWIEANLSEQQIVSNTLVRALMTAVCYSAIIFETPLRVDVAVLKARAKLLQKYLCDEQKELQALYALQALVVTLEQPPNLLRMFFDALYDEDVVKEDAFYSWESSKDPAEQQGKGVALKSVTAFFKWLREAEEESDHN
# UniProt P78344: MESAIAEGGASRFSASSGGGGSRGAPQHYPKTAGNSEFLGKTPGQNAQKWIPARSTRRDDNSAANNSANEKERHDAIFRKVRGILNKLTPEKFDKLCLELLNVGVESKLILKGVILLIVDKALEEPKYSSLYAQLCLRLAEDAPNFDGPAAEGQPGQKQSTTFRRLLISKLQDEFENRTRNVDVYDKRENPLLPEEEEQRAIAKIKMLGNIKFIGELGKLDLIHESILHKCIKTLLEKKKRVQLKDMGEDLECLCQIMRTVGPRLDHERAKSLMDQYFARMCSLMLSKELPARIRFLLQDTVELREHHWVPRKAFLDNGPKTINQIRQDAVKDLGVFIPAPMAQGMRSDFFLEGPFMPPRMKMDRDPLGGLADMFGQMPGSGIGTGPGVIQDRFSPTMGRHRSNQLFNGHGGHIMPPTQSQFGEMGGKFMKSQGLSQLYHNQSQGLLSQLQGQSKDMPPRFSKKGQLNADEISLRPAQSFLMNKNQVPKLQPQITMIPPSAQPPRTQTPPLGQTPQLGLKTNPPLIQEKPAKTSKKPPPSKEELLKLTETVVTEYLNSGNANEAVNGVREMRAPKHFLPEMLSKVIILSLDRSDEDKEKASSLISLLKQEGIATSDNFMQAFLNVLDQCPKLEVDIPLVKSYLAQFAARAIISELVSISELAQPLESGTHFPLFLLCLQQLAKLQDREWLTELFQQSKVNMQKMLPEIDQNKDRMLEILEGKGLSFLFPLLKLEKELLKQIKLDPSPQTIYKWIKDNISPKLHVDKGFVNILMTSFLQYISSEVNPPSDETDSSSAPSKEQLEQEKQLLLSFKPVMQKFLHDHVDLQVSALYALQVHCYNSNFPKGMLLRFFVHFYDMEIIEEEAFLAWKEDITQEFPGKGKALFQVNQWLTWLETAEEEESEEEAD
# No constants are given. Whether binding was seen depends on the method and setting. In cells and extracts the contact can be indirect. These calls come from enrichment with a bait or labelling near it, and not all partners need be listed.
# How the values were obtained:
# [1] = target: SBP-tagged eIF4A2 (human) (UniProt Q14240); assay: affinity purification with mass spectrometry
# [2] = target: SBP-tagged eIF4A1 (human) (UniProt P60842); assay: affinity purification with mass spectrometry
binding [1],binding [2],Substance
binds,,"eIF4G1, endogenous (from UniProt Q04637 1-1599)"
binds,binds,"eIF4G2, endogenous (from UniProt P78344 1-907)"
